{"source": "PubChem BioAssay AID322", "about": "(DTP/NCI, 2004)", "system": "CD2F1 mice, P388/ADR leukemia ip, median survival T/C", "assay": "NCI In Vivo Anticancer Drug Screen. Data for tumor model P388 Leukemia resistant to Adriamycin; NSC 123127, Developed at Scr 08 (intraperitoneal) in CD2F1 (CDF1) mice", "details": "T/C endpoint: median survival time, schedule: Q01DX005 (ip), higher T/C = longer survival", "experimental": "The antitumor activity of compounds was measured in mice bearing transplantable tumors. Survival or tumor size were measured and the results are expressed as the measurement made in the treated group (T) divided by the measurement made in the vehicle treated control group (C). The tumor model used in this assay is P388 Leukemia resistant to Adriamycin; NSC 123127, Developed at Scr 08 (intraperitoneal) in CD2F1 (CDF1) mice", "note": "The list is a part of this screen's results and no random one: it gathers tests that were run many times, whatever their T/C, doses with no T/C, and many T/C values between a quarter and a half above the control. Further doses and runs are listed elsewhere. T/C is the treated group as % of the vehicle group. Some entries give survivors of the animals treated and no T/C: the source holds a T/C of zero for them, seemingly a mark for toxic or unscored doses. Some doses without a T/C left all or most animals alive at the check, yet need not have been tolerated: survival well below the control is almost never listed, so the zero probably covers shortened survival too. Survivors were counted at the toxicity check, usually on the fifth day, unless a day is given; later deaths do not show. Schedule codes are those of the source, read here as Q, the interval in days (D) or hours (H), X, the number of doses. Where survival is the endpoint, this PubChem deposit counts one and a half times the control or more as active, and values a quarter to a half above the control carry no call in these data; other NCI protocols may use other cut-offs. Additions like (4×) stand for listed records that agree. Some T/C values carry the count of animals alive at the toxicity check (mostly the fifth day); without a count, all were alive then. Some entries hold several experiments; the values are given in rising order.", "data": [{"smiles": "CN(C)[C@@H]1C(=O)C(C(=O)NCN2CCN(C(=N)N=C(N)N)CC2)=C(O)[C@@]2(O)C(=O)C3=C(O)c4c(O)cccc4[C@@](C)(O)[C@H]3C[C@@H]12", "values": [{"measurement": "T/C", "setting": "dose: 1.8 mg/kg/injection, vehicle: saline", "result": "126 and 135 % of control"}, {"measurement": "T/C", "setting": "dose: 3.0 mg/kg/injection, vehicle: saline", "result": "129 % of control (2×)"}, {"measurement": "T/C", "setting": "dose: 5.0 mg/kg/injection, vehicle: saline", "result": "126 and 137 % of control"}, {"measurement": "survivor count", "setting": "dose: 8.32 mg/kg/injection, vehicle: saline", "result": "9 of 10"}, {"measurement": "T/C", "setting": "dose: 8.33 mg/kg/injection, vehicle: saline", "result": "134 % of control [9 of 10 alive]"}, {"measurement": "survivor count", "setting": "dose: 8.33 mg/kg/injection, vehicle: suspension in saline", "result": "6 of 10"}, {"measurement": "survivor count", "setting": "dose: 10.0 mg/kg/injection, vehicle: saline", "result": "7 of 10"}, {"measurement": "survivor count", "setting": "dose: 13.88 mg/kg/injection, vehicle: saline", "result": "1 of 10"}, {"measurement": "survivor count", "setting": "dose: 13.89 mg/kg/injection, vehicle: saline", "result": "9 of 10"}, {"measurement": "survivor count", "setting": "dose: 13.89 mg/kg/injection, vehicle: suspension in saline", "result": "1 of 10"}]}, {"smiles": "COc1ccc2[nH]c3ccc4cc[n+](CCN5CCC(C6CCN(CC[n+]7ccc8ccc9[nH]c%10ccc(OC)cc%10c9c8c7)CC6)CC5)cc4c3c2c1", "values": [{"measurement": "T/C", "setting": "dose: 4.0 mg/kg/injection, vehicle: water", "result": "136 % of control"}, {"measurement": "T/C", "setting": "dose: 8.0 mg/kg/injection, vehicle: water", "result": "135 % of control"}, {"measurement": "T/C", "setting": "dose: 16.0 mg/kg/injection, vehicle: water", "result": "136 % of control"}, {"measurement": "T/C", "setting": "dose: 32.0 mg/kg/injection, vehicle: water", "result": "135 % of control"}, {"measurement": "survivor count", "setting": "dose: 64.0 mg/kg/injection, vehicle: water", "result": "0 of 10"}]}, {"smiles": "O=c1[nH]cc(F)c(=O)[nH]1", "values": [{"measurement": "T/C", "setting": "dose: 15.0 mg/kg/injection, vehicle: saline, evaluated on day 23", "result": "136 % of control"}, {"measurement": "T/C", "setting": "dose: 15.0 mg/kg/injection, vehicle: saline, evaluated on day 30", "result": "127 [9 of 10 alive], 130, 136, 141, 145 (3×), 146, 150, 151, 153, 154, 155, 157, 158, 159 (3×), 161, 168, 186, 223 % of control"}, {"measurement": "T/C", "setting": "dose: 15.0 mg/kg/injection, vehicle: saline, evaluated on day 45", "result": "150 % of control"}, {"measurement": "T/C", "setting": "dose: 15.0 mg/kg/injection, vehicle: saline, evaluated on day 56", "result": "150 % of control"}, {"measurement": "T/C", "setting": "dose: 15.0 mg/kg/injection, vehicle: saline, evaluated on day 60", "result": "130, 134, 140 [9 of 10 alive], 147, 150, 165 % of control"}, {"measurement": "T/C", "setting": "dose: 20.0 mg/kg/injection, vehicle: saline, evaluated on day 30", "result": "155, 157, 162 % of control"}, {"measurement": "T/C", "setting": "dose: 20.0 mg/kg/injection, vehicle: saline, evaluated on day 45", "result": "152, 154, 161 % of control"}, {"measurement": "T/C", "setting": "dose: 25.0 mg/kg/injection, vehicle: saline, evaluated on day 23", "result": "122 % of control"}, {"measurement": "T/C", "setting": "dose: 25.0 mg/kg/injection, vehicle: saline, evaluated on day 30", "result": "139, 143 (2×), 144, 147, 148, 149, 150, 151 (2×), 154, 156, 157, 158 [9 of 10 alive], 161 (5×), 167, 168 (2×), 186 % of control"}, {"measurement": "T/C", "setting": "dose: 25.0 mg/kg/injection, vehicle: saline, evaluated on day 45", "result": "154, 164, 165, 166 % of control"}, {"measurement": "T/C", "setting": "dose: 25.0 mg/kg/injection, vehicle: saline, evaluated on day 56", "result": "166 % of control"}, {"measurement": "T/C", "setting": "dose: 25.0 mg/kg/injection, vehicle: saline, evaluated on day 60", "result": "139, 142, 144, 153 (2×), 173 % of control"}]}, {"smiles": "CC(=O)N(C)c1ccc(Nc2cc(C)[nH]c3ccc4ncnc4c23)cc1", "values": [{"measurement": "T/C", "setting": "dose: 67.0 mg/kg/injection, vehicle: saline", "result": "127 % of control"}]}]}
